Reference: the supplement of paper PMC12009310
Counter-ions that a name gives are not always drawn. ± gives the standard deviation of the averaged measurements. The list shows a part of the results. Baselines shift from plate to plate; read single values as rough.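 The cells are a mouse kidney inner medullary collecting duct line, silenced either for the ciliary gene Rpgrip1l or with a non-targeting control siRNA.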

What was measured:
mIMCD3 [1] = assay: robust z score of cell number vs plate controls; higher = more cells (less cytotoxic); conditions: 10 µM, 48 h
mIMCD3 [2] = assay: robust z score of cilia incidence (% cells with single cilium) vs plate controls; higher = more ciliated cells; conditions: 10 µM; 48 h; siRNA: siScr
mIMCD3 [3] = assay: robust z score of cilia incidence (% cells with single cilium) vs plate controls; higher = more ciliated cells (rescue of cilia loss); conditions: 10 µM; 48 h; siRNA: siRpgrip1l

Row | Compound | robust z score of cell number (mIMCD3 [1]; siRNA: siRpgrip1l) | robust z score of cell number (mIMCD3 [1]; siRNA: siScr) | robust z score of cilia incidence (mIMCD3 [2]) | robust z score of cilia incidence (mIMCD3 [3])
1 | CC(C)NC[C@H](O)COc1cccc2[nH]ccc12 [(S)-(-)-Pindolol] | -11.1 ± 7.1 | 1 ± 0.87 | -0.132 ± 0.027 | -18.8 ± 0.81
2 | Cc1nc2ccc(NC(=O)Nc3ccnc4cccnc34)cc2o1 | -38 ± 35 | -24.4 ± 7.4 | -69.9 ± 50 | -59.3 ± 31
3 | CC1(C)NC(=O)N(c2ccc([N+](=O)[O-])c(C(F)(F)F)c2)C1=O [Nilutamide] | -12 ± 10 | -7.43 ± 0.21 | 3.801 ± 0.035 | -10.9 ± 4.6
4 | CCCCC[C@H](O)/C=C/[C@H]1[C@H](O)CC(=O)[C@@H]1C/C=C\CCCC(=O)O [Prostaglandin E2] | -9.63 ± 5.3 | -4.45 ± 3.7 | -1.2 ± 0.25 | -11.5 ± 7
5 | N#Cc1ccc(NCCNCC(=O)N2CCC[C@H]2C#N)nc1 [NVP DPP 728 dihydrochloride] | -7.6 ± 3.3 | -1.51 ± 4 | -2.02 ± 3.3 | -4.58 ± 2.7
6 | Cc1scc2c1N(C(=O)CN1CCN(C)CC1)c1ccccc1NC2=O [Telenzepine dihydrochloride] | -5.5 ± 1.3 | 1.32 ± 0.5 | 1.13 ± 2.4 | -13.15 ± 0.038
7 | CN(CCc1ccc(Cl)c(Cl)c1)CC(O)COc1ccc(NS(C)(=O)=O)cc1 (stereo unspecified) | -24.6 ± 2 | -21.8 ± 11 | -26.8 ± 7.7 | -24.5 ± 5
8 | CCCCCCNC(=O)Nc1ccc(S(=O)(=O)Nc2ccc(CCNC[C@H](O)COc3ccc(O)cc3)cc2)cc1 | -30.8 ± 19 | -35.5 ± 27 | -4.91 ± 5.9 | -34.7 ± 14
9 | CCn1c(=O)n(C2=C(CO)CN(CC3CCCCCCC3)CC2)c2ccccc21 | -18.9 ± 5.6 | -92.9 ± 76 | -21.8 ± 1.2 | -38.3 ± 1.9
